Experimental findings from paper PMC10079970 are described below.

Where a chain is given by its changes, count along the chain named. No constants are given. Whether binding was seen depends on the method and setting. In cells and extracts the contact can be indirect. A yes stands for co-enrichment or nearness to the bait. Other partners may have been found. Where a sequence is shown, tags or fusion partners need not be part of it.

Assay in all cases: affinity purification with mass spectrometry; anti-FLAG M2 agarose IP of V5-FLAG-GCase from T-Rex HEK lysate (1x TBS pH 7.4, 0.5% NP40), 2 h at 4 °C, FLAG peptide elution, TMT labelling and LC-MS; empty-vector cells as control; interactors: ≥2 unique peptides, enriched 1.5-fold over control
The target in test [1] is T1, V5-FLAG-tagged wild-type β-glucocerebrosidase (GCase) (human) (UniProt P04062).
T1 sequence: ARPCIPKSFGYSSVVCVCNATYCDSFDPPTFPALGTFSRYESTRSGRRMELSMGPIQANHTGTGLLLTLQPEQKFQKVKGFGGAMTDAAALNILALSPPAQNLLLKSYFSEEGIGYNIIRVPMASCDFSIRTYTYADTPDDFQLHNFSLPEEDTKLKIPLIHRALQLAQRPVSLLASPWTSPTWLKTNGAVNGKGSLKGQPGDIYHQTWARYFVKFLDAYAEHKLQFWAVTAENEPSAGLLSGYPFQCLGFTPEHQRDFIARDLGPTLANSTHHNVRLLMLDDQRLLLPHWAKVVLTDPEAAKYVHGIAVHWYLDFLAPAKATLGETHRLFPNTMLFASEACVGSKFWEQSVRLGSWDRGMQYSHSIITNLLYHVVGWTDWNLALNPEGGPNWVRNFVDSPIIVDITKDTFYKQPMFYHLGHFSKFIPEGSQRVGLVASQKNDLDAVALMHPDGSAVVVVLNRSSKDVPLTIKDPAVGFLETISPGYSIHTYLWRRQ

Test [2] deals with T2, V5-FLAG-tagged E326K β-glucocerebrosidase (GCase) (human) (UniProt P04062).
T2 sequence: T1 sequence with E326K

The target of test [3] is T3, V5-FLAG-tagged L444P β-glucocerebrosidase (GCase) (human) (UniProt P04062).
T3 sequence: T1 sequence with L444P

B1: LONP1 (enzyme, UniProt P36776 68-959)
chain: FWEASSRGGGAFSGGEDASEGGAEEGAGGAGGSAGAGEGPVITALTPMTIPDVFPHLPLIAITRNPVFPRFIKIIEVKNKKLVELLRRKVRLAQPYVGVFLKRDDSNESDVVESLDEIYHTGTFAQIHEMQDLGDKLRMIVMGHRRVHISRQLEVEPEEPEAENKHKPRRKSKRGKKEAEDELSARHPAELAMEPTPELPAEVLMVEVENVVHEDFQVTEEVKALTAEIVKTIRDIIALNPLYRESVLQMMQAGQRVVDNPIYLSDMGAALTGAESHELQDVLEETNIPKRLYKALSLLKKEFELSKLQQRLGREVEEKIKQTHRKYLLQEQLKIIKKELGLEKDDKDAIEEKFRERLKELVVPKHVMDVVDEELSKLGLLDNHSSEFNVTRNYLDWLTSIPWGKYSNENLDLARAQAVLEEDHYGMEDVKKRILEFIAVSQLRGSTQGKILCFYGPPGVGKTSIARSIARALNREYFRFSVGGMTDVAEIKGHRRTYVGAMPGKIIQCLKKTKTENPLILIDEVDKIGRGYQGDPSSALLELLDPEQNANFLDHYLDVPVDLSKVLFICTANVTDTIPEPLRDRMEMINVSGYVAQEKLAIAERYLVPQARALCGLDESKAKLSSDVLTLLIKQYCRESGVRNLQKQVEKVLRKSAYKIVSGEAESVEVTPENLQDFVGKPVFTVERMYDVTPPGVVMGLAWTAMGGSTLFVETSLRRPQDKDAKGDKDGSLEVTGQLGEVMKESARIAYTFARAFLMQHAPANDYLVTSHIHLHVPEGATPKDGPSAGCTIVTALLSLAMGRPVRQNLAMTGEVSLTGKILPVGGIKEKTIAAKRAGVTCIVLPAENKKDFYDLAAFITEGLEVHFVEHYREIFDIAFPDEQAEALAVER
As to B1, the binding entry in test [1], in test [2] and in test [3] was “binds” each time.

B2: TIMMDC1 (protein, UniProt Q9NPL8 1-285)
chain: MEVPPPAPRSFLCRALCLFPRVFAAEAVTADSEVLEERQKRLPYVPEPYYPESGWDRLRELFGKDEQQRISKDLANICKTAATAGIIGWVYGGIPAFIHAKQQYIEQSQAEIYHNRFDAVQSAHRAATRGFIRYGWRWGWRTAVFVTIFNTVNTSLNVYRNKDALSHFVIAGAVTGSLFRINVGLRGLVAGGIIGALLGTPVGGLLMAFQKYSGETVQERKQKDRKALHELKLEEWKGRLQVTEHLPEKIESSLQEDEPENDAKKIEALLNLPRNPSVIDKQDKD
For B2, the binding entry in test [1], in test [2] and in test [3] was “binds” throughout.

B3: LIMP2 (protein, UniProt Q14108 1-478)
chain: MGRCCFYTAGTLSLLLLVTSVTLLVARVFQKAVDQSIEKKIVLRNGTEAFDSWEKPPLPVYTQFYFFNVTNPEEILRGETPRVEEVGPYTYRELRNKANIQFGDNGTTISAVSNKAYVFERDQSVGDPKIDLIRTLNIPVLTVIEWSQVHFLREIIEAMLKAYQQKLFVTHTVDELLWGYKDEILSLIHVFRPDISPYFGLFYEKNGTNDGDYVFLTGEDSYLNFTKIVEWNGKTSLDWWITDKCNMINGTDGDSFHPLITKDEVLYVFPSDFCRSVYITFSDYESVQGLPAFRYKVPAEILANTSDNAGFCIPEGNCLGSGVLNVSICKNGAPIIMSFPHFYQADERFVSAIEGMHPNQEDHETFVDINPLTGIILKAAKRFQINIYVKKLDDFVETGDIRTMVFPVMYLNESVHIDKETASRLKSMINTTLIITNIPYIIMALGVFFGLVFTWLACKGQGSMDEGTADERAPLIRT
Take B3: the binding entry in test [1] is recorded as “binds”.
